# Library screening results

Protein sequences, listed by entry. Tags and fused reporters are not part of them.
UniProt E9BF75, entry or part of it: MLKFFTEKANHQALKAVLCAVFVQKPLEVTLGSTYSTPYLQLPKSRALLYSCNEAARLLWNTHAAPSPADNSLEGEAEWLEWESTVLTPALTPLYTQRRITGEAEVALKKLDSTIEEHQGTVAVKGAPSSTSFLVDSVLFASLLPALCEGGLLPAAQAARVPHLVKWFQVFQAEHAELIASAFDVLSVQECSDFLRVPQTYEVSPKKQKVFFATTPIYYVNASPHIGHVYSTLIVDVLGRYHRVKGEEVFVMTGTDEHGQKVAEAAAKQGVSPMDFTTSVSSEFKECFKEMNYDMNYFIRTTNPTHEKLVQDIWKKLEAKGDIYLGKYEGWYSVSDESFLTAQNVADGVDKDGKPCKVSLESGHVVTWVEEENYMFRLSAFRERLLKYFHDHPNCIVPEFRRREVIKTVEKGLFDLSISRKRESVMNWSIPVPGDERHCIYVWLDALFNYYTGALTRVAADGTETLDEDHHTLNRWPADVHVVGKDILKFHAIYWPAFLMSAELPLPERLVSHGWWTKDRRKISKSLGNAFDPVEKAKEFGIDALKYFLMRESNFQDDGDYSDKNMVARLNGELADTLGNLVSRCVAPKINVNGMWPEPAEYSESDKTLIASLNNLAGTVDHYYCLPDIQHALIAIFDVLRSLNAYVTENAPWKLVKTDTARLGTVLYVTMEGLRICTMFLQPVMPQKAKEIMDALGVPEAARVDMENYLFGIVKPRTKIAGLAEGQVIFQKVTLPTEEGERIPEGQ

Measurements from “University of Dundee, Small-Polar-MMV Screening Library” (2021), ChEMBL document CHEMBL3988442.

Results are percentages, as filed. The record does not define 0% and 100%; most values in the screen are far below 50% and negative numbers occur (in some assays of this library far below -100). This is an unselected part of the compounds tested. A dash means the value is not listed here; it may have been measured.

Mtb heat-shock: 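Assay on Mycobacterium tuberculosis, filed only as a heat shock assay from Cornell; the read-out is not stated. The concentration is filed as 10 mM, unlikely as a test dose, so the dose is not known. Higher reads as stronger inhibition (inferred: compounds with an IC50 in retests scored well above the rest). Of about 69,000 compounds tested this way, about 930 (1.4%) reached 50% or more in at least one test.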
Mtb growth Cornell: 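Whole-cell assay for inhibitors of Mycobacterium tuberculosis growth, labelled Cornell in the record; the read-out is not stated. The concentration is filed as 10 mM, unlikely as a test dose, so the dose is not known. The record gives no direction; compounds strong in two other growth screens of this library score well above the rest, so higher reads as stronger inhibition. About 53,000 compounds were tested under these conditions; 1.7% (about 900) showed 50% or more at least once.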
LdMetRS: 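Primary screen of methionyl-tRNA synthetase; the read-out is not stated. Target: Methionyl-tRNA synthetase (putative), Leishmania donovani (UniProt E9BF75). The test concentration is not given. The values are filed as inhibition. Of about 68,000 compounds tested this way, about 24 (0.035%) reached 50% or more in at least one test.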

SMILES | Mtb heat-shock | Mtb growth Cornell | LdMetRS
CC(C)n1cc(CN2CCCN(C(=O)CC3CCCCC3)CC2)cn1 | -1.821% | 17.17% | 23.33%
Cn1cnc(S(=O)(=O)NCCN2CCCCCC2)c1Cl | -12.79% | -37.47% | 22.22%
Cc1nc(C)c(C(=O)N2Cc3ccccc3OCC2CN(C)C)o1.Cl.Cl (centres unmarked) | -17% | -5.581% | -
O=C(O)c1cn(CC2CCCN(c3cnc4ccccc4n3)C2)nn1 (centres unmarked) | -3.28% | 15.09% | 7.949%
Cn1cc(-c2cc(C(F)(F)F)nn2CCC#N)cn1 | 3.756% | -10.76% | 3.116%
O=C(Cc1ccncc1)N1C[C@@H]2CC[C@H](C1)N(Cc1ccccc1)C2=O | - | - | 4.27%
CCc1ccc(CN2CCCn3c(nc(Cn4ccnc4)cc3=O)C2)o1 | - | - | 14.7%
Cc1noc(C)c1CN1CCCC2(CCN(C(=O)NC3CC3)C2)C1 (centres unmarked) | - | - | 4.377%
CNc1cc(C)nc(N2CCC3(CC2)[C@H](O)C[C@@H]3O)n1 | -17.53% | - | 12.78%
N#CCCN(C(=O)CN1CCCC1Cc1ccccc1)c1ccccc1 (centres unmarked) | 8.929% | 22.43% | 17.14%
Cc1cnn(CCNCC(O)c2cccc(Br)c2)c1 (centres unmarked) | 9.586% | 21.73% | 5.426%
Cc1cnc(NCC(C)(C)N2CCN(C)CC2)nc1 | 21.84% | - | 10.65%
Cn1nc2c(cc1=O)CN(Cc1nc3ccccc3c(=O)[nH]1)CC2 | -2.619% | -21.35% | 9.537%
O=C(O)CN1CCC(C(F)(F)F)CC1 | - | - | 18.66%
CCc1nc(CN(C)C2CCN(Cc3ccc(Cl)s3)C2)no1 (centres unmarked) | -7.896% | 11.81% | 2.011%
Cc1noc(C)c1S(=O)(=O)N1CCc2nc(C3CCNCC3)ncc2C1.Cl | -15.13% | 6.846% | -
COc1ncccc1C(=O)N1CC[C@H]2C[C@H](c3ccncn3)O[C@@H]2C1 | - | - | 17%
Cc1csc([C@H]2C[C@H]3CN(Cc4cc(C)on4)CC[C@@H]3O2)n1 | - | - | 11.95%
Cc1ccc(CN2Cc3nnn(C)c3C(COCc3ccccc3)C2)s1 (centres unmarked) | - | - | 13.2%
O=C(CCCNC(=O)c1cnccn1)Nc1ncc[nH]1 | -13.18% | 18.01% | 13.03%
Cc1nc(CN2CCCC(NCc3ccc(C(N)=O)cc3)C2)no1 (centres unmarked) | -14.18% | - | 21.79%
CCc1nnc(Nc2cc(C)nc(C3CCN(c4ccncn4)C3)n2)s1 (centres unmarked) | -32.89% | -19.2% | 5.696%
CCc1ncc2c(n1)CN(Cc1nc(-c3ccsc3)no1)CC2 | 8.892% | 7.29% | 23.62%
c1cnc(NCc2ncn3c2CN(Cc2cccnc2)CCC3)nc1 | - | - | 16.19%
CCOC(=O)c1n[nH]cc1CN1CCOC(Cc2ccc(F)cc2)C1 (centres unmarked) | -168.5% | - | 17.22%
Cc1ccc(C(=O)NS(C)(=O)=O)cc1I | -34.18% | -10.55% | 4.897%
CCNC(c1ccc(Br)cc1)c1cccnc1 (centres unmarked) | 0.8227% | -3.528% | 13.68%
CNC(=O)c1cnc(/C=C/c2ccc(O)c(OC)c2)s1 | 10.91% | 24.49% | 7.143%
CC(=O)Nc1nc(CN2CCOC(Cn3cncn3)C2)cs1 (centres unmarked) | -4.69% | - | 17.68%
[H][C@]12CCN(C(=O)Cc3ccccc3)CC[C@@]1([H])S(=O)(=O)NC2 | -11.23% | 9.092% | -
COCC1CN(C(=O)c2ccoc2)Cc2cnn(CC3CCOCC3)c21 (centres unmarked) | - | - | 7.65%
O=C(O)C(F)(F)F.O=C(O)C(F)(F)F.[H][C@@]12CN(Cc3nccs3)C[C@]1([H])OCCN2c1ccc(C)nn1 | -20.26% | 9.191% | -
CC(C)(N)c1cn([C@@H]2c3ccccc3C3(CCNCC3)[C@H]2O)nn1 | -15.43% | -9.223% | 14.61%
Cn1cnc(S(=O)(=O)Nc2cc(C(N)=O)ccc2Cl)c1 | 26.6% | - | 9.89%
COc1cc(C(=O)N(C)C(C)Cc2cc(C)ccn2)ccn1 (centres unmarked) | -14.04% | - | 8.591%
CC(C)C(NC(=O)Cn1nc2c(cc1=O)CCCC2)C(=O)O (centres unmarked) | -15.62% | - | 10.29%
Nc1nnnn1NCc1cccc2ccccc12 | -2.229% | 24.87% | 7.649%
Cc1cccc(OC2CCN(C(=O)c3ccc4ncsc4c3)CC2)n1 | 15.23% | 37.84% | 18.65%
OC(COc1ccccc1)CN1CCN(c2nccs2)CC1 (centres unmarked) | -19.45% | -6.822% | 5.836%
CNc1nc(C(=O)N2CCC3(CCCN(CC4CC4)C3=O)C2)cs1 (centres unmarked) | -39.6% | 18.72% | 17.58%
Cn1cc(CNC2CCC(O)CC2)c(-c2cc3ccccc3o2)n1 (centres unmarked) | - | - | 15.66%
COCC(=O)Nc1ccc(Oc2ccsc2C(=O)O)cc1 | -2.365% | 86.45% | 17.25%
Cc1noc(CNC(=O)CN(C)c2nc3c(F)cccc3s2)n1 | -18.04% | 16.01% | 12.23%
CC(=O)c1cccc(NC(=O)NCCOCC2CC2)c1 | 4.063% | 22.21% | 17.04%
CNC(=O)N1C[C@H]2N(c3ncccn3)CCC[C@@]2(C(=O)NCC2CC2)C1 | - | - | 15.5%
CCC(C)N1CCc2c(C(=O)N3CCOCC3)n[nH]c2C1 (centres unmarked) | 0.1703% | - | 6.111%
COC[C@]1(O)CCN(Cc2ccc(N(C)C)nc2)CC1(C)C | 0.8938% | 9.092% | 19.82%
OC(CNC1CCSCC1)c1cccc(OCc2ccccc2)c1 (centres unmarked) | 3.767% | -1.385% | 6.989%
CCc1noc(C(C)N2CCN(S(=O)(=O)N3CCCC3)CC2)n1 (centres unmarked) | -9.643% | -7.315% | 19.36%
O=C(CCCOc1cccc(F)c1)N1CCCC(n2cncn2)C1 (centres unmarked) | -24.46% | - | 20.77%
CS(=O)(=O)c1cccc(S(=O)(=O)NC(=O)CC2CCCCC2)c1 | -3.154% | 19.19% | 0%
Cc1nn(C)c(C)c1C1COCCN1C(=O)c1ccc(Cl)o1 (centres unmarked) | -16.75% | - | 6.25%

Repeated from the top, 5 entries:

| SMILES | Mtb heat-shock | Mtb growth Cornell | LdMetRS |
|---|---|---|---|
| `CC(C)n1cc(CN2CCCN(C(=O)CC3CCCCC3)CC2)cn1` | -1.821% | 17.17% | 23.33% |
| `Cn1cnc(S(=O)(=O)NCCN2CCCCCC2)c1Cl` | -12.79% | -37.47% | 22.22% |
| `Cc1nc(C)c(C(=O)N2Cc3ccccc3OCC2CN(C)C)o1.Cl.Cl` (centres unmarked) | -17% | -5.581% | - |
| `O=C(O)c1cn(CC2CCCN(c3cnc4ccccc4n3)C2)nn1` (centres unmarked) | -3.28% | 15.09% | 7.949% |
| `Cn1cc(-c2cc(C(F)(F)F)nn2CCC#N)cn1` | 3.756% | -10.76% | 3.116% |